Measurements reported in PubChem BioAssay AID652243 (Drosophila RNAi Screening Center, 2013)
Screen: 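Knock-downs that decrease or increase androgen receptor reporter signal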 (primary screen). Cells: Drosophila S2R+ cells. Reagent: long dsRNA against Drosophila genes. Timing: 72 h (48 h, then 24 h hormone). Challenge: synthetic androgen R1881 at 10 nM for 24 h. Measured: 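Firefly light from an androgen-responsive reporter and Renilla control light per well, raw and unnormalised, for each of two replicates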. Scale: firefly reporter light: higher = more light from androgen-responsive reporter; Renilla control light: higher = more constitutive control signal (cell number, transfection). Active means: 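Hit when the log firefly-to-Renilla ratio dropped or increased by a fixed fold versus the mean of GFP or LacZ controls across duplicate plates; lowering cut given as 1.5 and as 3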. Calls: active = hit: reporter lowered or raised; inactive = no hit.
The deposit covers about 24,000 reagents; below is an unselected part of those with a known target gene and a result. In the full data, 246 (1%) got an active call. 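Plates not normalised; calls are printed but the firefly/Renilla ratio behind them is not deposited; fold cut for lowering reported inconsistently.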 The raw values are shown without normalisation. Names joined by + are all predicted targets of the reagent. The record does not give: the amount of reagent.

Gene	dsRNA	firefly reporter light, replicate 1	firefly reporter light, replicate 2	Renilla control light, replicate 1	Renilla control light, replicate 2	outcome
Psc (GeneID 36431)	DRSC07518	2.24e5	1.99e5	1.19e6	1.45e6	inactive
Psc (GeneID 36431)	DRSC29016	4.13e5	4.82e5	1.23e6	1.22e6	inactive
CG10435 (GeneID 40948)	DRSC14246	18885	27062	3.03e5	4.43e5	inactive
CG10435 (GeneID 40948)	DRSC25312	8.61e5	1.02e6	9.71e5	1.07e6	inactive
Ipk1 (GeneID 37360)	DRSC04235	5.81e5	6.59e5	2.39e6	2.78e6	inactive
Ipk1 (GeneID 37360)	DRSC04236	1.55e5	1.70e5	1.03e6	1.13e6	inactive
Ipk1 (GeneID 37360)	DRSC04237	2.23e5	2.36e5	2.06e6	1.92e6	inactive
maca (GeneID 41892)	DRSC15738	76735	1.04e5	1.10e6	1.03e6	inactive
fax (GeneID 39826)	DRSC11345	19465	21754	2.43e5	2.30e5	inactive
fax (GeneID 39826)	DRSC27842	4.65e5	5.20e5	6.23e5	6.47e5	inactive
Tusp (GeneID 43317)	DRSC15838	1.39e5	1.88e5	2.27e6	3.04e6	inactive
LManIII (GeneID 34203)	DRSC03221	1.36e5	2.14e5	9.66e5	1.04e6	inactive
LManIII (GeneID 34203)	DRSC29001	4.28e5	3.35e5	1.49e6	1.27e6	inactive
Hsp26 (GeneID 39075)	DRSC11189	9.81e5	4.76e5	1.40e6	6.53e5	inactive
phr6-4 (GeneID 35322)	DRSC03589	1.35e5	1.16e5	1.49e6	1.59e6	inactive
phr6-4 (GeneID 35322)	DRSC26873	2.76e5	3.74e5	4.04e5	4.55e5	inactive
sona (GeneID 37762)	DRSC04089	3.03e5	3.19e5	1.55e6	1.32e6	inactive
sona (GeneID 37762)	DRSC04574	41295	67013	8.26e5	8.82e5	inactive
sona (GeneID 37762)	DRSC04575	1.65e5	2.90e5	1.52e6	1.79e6	inactive
Drsl1 (GeneID 326207)	DRSC22490	5.09e5	9.81e5	7.59e5	9.36e5	inactive
CG43322 (GeneID 33984)	DRSC02280	80454	1.35e5	8.70e5	1.10e6	inactive
CG43322 (GeneID 33984)	DRSC27089	3.08e5	2.28e5	7.41e5	3.55e5	inactive
tamo (GeneID 37864)	DRSC04446	2.47e5	2.39e5	8.57e5	8.26e5	inactive
tamo (GeneID 37864)	DRSC24895	3.07e5	2.61e5	9.25e5	5.86e5	inactive
CG18294 (GeneID 40115)	DRSC09891	2.40e5	1.98e5	3.57e6	3.35e6	inactive
ms(3)76Cc (GeneID 40142)	DRSC11071	2.85e5	2.24e5	1.82e6	2.14e6	inactive
ms(3)76Cc (GeneID 40142)	DRSC21630	1.85e5	1.35e5	2.43e6	1.95e6	inactive
CG7394 (GeneID 39294)	DRSC10835	3.11e5	3.49e5	3.23e6	2.94e6	inactive
wuc (GeneID 36401)	DRSC06152	1.66e5	1.52e5	9.49e5	1.15e6	inactive
CG1941 (GeneID 35718)	DRSC06802	5.15e5	5.29e5	1.34e6	1.86e6	inactive
Crag (GeneID 31800)	DRSC18454	92972	89918	6.54e5	7.06e5	inactive
Pif1A (GeneID 8674049)	DRSC14383	80741	96187	1.31e6	1.25e6	inactive
Cht12 (GeneID 246535)	DRSC03844	1.56e5	1.10e5	3.43e5	3.57e5	inactive
Pex1 (GeneID 45460)	DRSC11358	1.30e6	1.11e6	1.44e6	1.10e6	inactive
CG34315 + Orc3	DRSC07642	1.47e6	6.60e5	1.93e6	1.03e6	inactive
CG34315 + Orc3	DRSC25371	5.26e5	4.33e5	4.04e5	3.64e5	inactive
CG5327 + CG5493	DRSC25926	6.35e5	6.50e5	7.16e5	8.78e5	inactive
Tsf2 (GeneID 39435)	DRSC09751	1.06e6	7.58e5	1.11e6	1.13e6	inactive
CG12880 (GeneID 43328)	DRSC14568	78622	88540	5.90e5	5.81e5	inactive
EloB (GeneID 42435)	DRSC16663	2.20e5	2.36e5	3.19e6	3.45e6	inactive
CG31601 (GeneID 318835)	DRSC03678	1.79e5	1.81e5	5.39e5	5.65e5	inactive
CR43670 + grp + CR43671 + 1 more	DRSC03541	7.20e5	8.59e5	1.06e6	1.37e6	inactive
bdg (GeneID 36747)	DRSC07136	1.59e6	1.10e6	2.62e6	1.77e6	inactive
CG2260 (GeneID 31732)	DRSC18223	1.16e5	1.05e5	8.44e5	5.39e5	inactive
CG2260 (GeneID 31732)	DRSC28536	2.17e5	2.95e5	4.76e5	1.27e6	inactive
drm (GeneID 49638)	DRSC00277	75842	93061	6.78e5	9.92e5	inactive
CG8833 (GeneID 39535)	DRSC11050	3.87e5	9.58e5	5.91e5	1.34e6	inactive
CG33308 (GeneID 2768925)	DRSC01419	2.12e5	1.80e5	4.26e5	7.90e5	inactive
CG14563 (GeneID 40435)	DRSC11724	2.24e5	89011	2.46e6	1.38e6	inactive
CR18275 + CG13373	DRSC17900	3.45e5	2.95e5	3.45e6	3.12e6	inactive
upd1 (GeneID 32813)	DRSC20358	5.20e5	3.54e5	4.08e6	3.24e6	inactive
upd1 (GeneID 32813)	DRSC28435	3.60e5	6.28e5	6.21e5	9.39e5	inactive
l(2)10685 (GeneID 33293)	DRSC00665	7.26e5	8.49e5	2.22e6	1.95e6	inactive
l(2)10685 (GeneID 33293)	DRSC27739	4.22e5	3.22e5	5.08e5	8.25e5	inactive
mRpL23 (GeneID 38302)	DRSC08307	1.10e5	82248	1.21e6	1.47e6	inactive
Rim2 (GeneID 33350)	DRSC00520	6.62e5	9.25e5	2.02e6	2.38e6	inactive
Rim2 (GeneID 33350)	DRSC22699	8.29e5	7.38e5	2.81e5	1.67e5	inactive
CR33013 (GeneID 14462581)	DRSC06286	2.09e5	1.42e5	1.34e6	9.66e5	inactive
CR33013 (GeneID 14462581)	DRSC25681	7.92e5	7.94e5	9.61e5	1.03e6	inactive

3 of these entries, reformatted.
sona (GeneID 37762) [DRSC04574] — firefly reporter light, replicate 1 = 41295; firefly reporter light, replicate 2 = 67013; Renilla control light, replicate 1 = 8.26e5; Renilla control light, replicate 2 = 8.82e5; outcome = inactive
sona (GeneID 37762) [DRSC04575] — firefly reporter light, replicate 1 = 1.65e5; firefly reporter light, replicate 2 = 2.90e5; Renilla control light, replicate 1 = 1.52e6; Renilla control light, replicate 2 = 1.79e6; outcome = inactive
Drsl1 (GeneID 326207) [DRSC22490] — firefly reporter light, replicate 1 = 5.09e5; firefly reporter light, replicate 2 = 9.81e5; Renilla control light, replicate 1 = 7.59e5; Renilla control light, replicate 2 = 9.36e5; outcome = inactive
